According to patent US20090196864A1 (priority 2005, published 2009):
At least one structure is not confirmed: it was looked up by name or label, or the drawing left a doubt.

What was measured:
[1] = system: S5 cells; assay type: cell-based, Trichoplusia ni
[2] = system: S5 cells; assay type: cell-based, Trichoplusia ni; remark: listed apart in the source

## C=C[C@@]1(C)CC(=O)[C@]2(O)[C@@]3(C)[C@@H](O)CCC(C)(C)[C@@H]3[C@H](O)[C@H](OC(C)=O)[C@@]2(C)O1 [FSK, forskolin]
[1]
  Cell death without Cry1Ab treatment: Neither FSK nor pCPT-cAMP alone was sufficient to bring about cell death
  Toxicity of Cry1Ab after pre-treatment: pronounced
[2]
  Intracellular cAMP levels: dramatically increased
